Measured values reported in PubChem BioAssay AID504444 (National Center for Advancing Translational Sciences (NCATS), 2011).
Among all 360,000 compounds or so, about 7,500 (2.1%) were called active. Inconclusive results, whose numbers are uncertain, are shown with a selection of clear calls. Calls follow the shape of the dose curve; as a rule, active = well fitted inhibition curve with a large enough effect; inconclusive = small, poorly fitted or top-dose-only effect, or effect the other way; inactive = flat fitted curve, though single readings scatter. Potencies beside an inconclusive call are fits to weak or partial responses and may not hold up.

Test: Nrf2 qHTS screen for inhibitors; also: nearly all actives have a fitted effect of over 60% in size
Conditions: A549 ARE-Fluc reporter, luciferase luminescence, 18-24 h; series mostly up to 46 µM
Summary of the method: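 A549 ARE_Fluc cells, 5000/well, 5% FBS OPTI-MEM; compounds in dose-response, 18-24 h at 37 °C/5% CO2; CellTiter-Fluor viability read (Ex 405/Em 525), then BugLite luciferase luminescence = Nrf2 activity.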
Potency is read from the fitted curve at half-maximal effect.

| SMILES | Potency |
| --- | --- |
| CC(=O)OCCNC(=O)Cn1cnc2c1c(=O)n(C)c(=O)n2C | inconclusive: 6.51 µM [activator, partial curve, poor fit] |
| Cc1ccc(CNc2oc(-c3ccc(COc4ccc(Cl)cc4)o3)nc2C#N)cc1 | inactive |
| O=C(COC(=O)c1cc([N+](=O)[O-])ccc1Cl)NC1CCCC1 | inactive |
| O=C(Nc1ccccc1)O/N=C1/CCCc2occc21 | inconclusive: 16.4 µM [activator, single point] |
| CCn1cc(C(=O)N2CCN(c3cc(Cl)ccc3C)CC2)c(=O)c2cc(S(=O)(=O)N3CCOCC3)ccc21 | active: 20.6 µM |
| Cc1ccc(-n2nnc(-c3cccnc3)n2)cc1 | inactive |
| C/C(=N\Nc1ccc(F)cc1F)c1ccc(Br)s1 | inactive |
| Cc1cc(C(=O)CN2C(=O)C(=O)N(C3CCCC3)C2=O)c(C)n1CCc1ccccc1 | active: 18.4 µM |
| COc1ccc(C2C=C(C)Nc3nc4ccccc4n32)cc1 (stereo not drawn) | inconclusive: 14.6 µM [activator, partial curve, poor fit] |
| O=C(CCS(=O)(=O)c1ccccc1)N1CCN(c2ccccc2F)CC1 | inconclusive: 3.66 µM [activator, partial curve] |
| COC(=O)c1[nH]c2c(c1C)C(=O)CC(c1cccc(OC)c1)C2 (stereo not drawn) | inactive |
| Cc1oc2c(c1C(=O)N1CCC(C)CC1)C(=O)c1ccccc1C2=O | active: 25.9 µM |
| NC(=S)N=Nc1c(O)n(Cc2ccc(Br)cc2)c2ccccc12 | inconclusive: 16.4 µM [falling, partial curve, poor fit] |
| Cc1ccccc1NC(=O)c1c(NC(=O)c2ccncc2)sc2c1CCC(C(C)(C)C)C2 (stereo not drawn) | inconclusive: 18.4 µM [falling, single point] |
| CCn1cc(CNC(=O)c2cc(COc3ccc(F)cc3Cl)on2)cn1 | inconclusive: 20.6 µM [falling, single point] |
| O=c1c2ccccc2nc(/C=C/c2c[nH]c3ccccc23)n1CCO | inconclusive: 5.8 µM [activator, full curve] |
| CCN(CC)S(=O)(=O)c1cc(NC(=O)CCCOc2ccc(C(C)=O)cc2)ccc1C | inconclusive: 25.9 µM [falling, single point] |
| Cc1ccsc1C(=O)Nc1nccs1 | inconclusive: 23.1 µM [activator, single point] |
| COc1ccc(N2N=NN(C(C)C)C2=C(Cl)c2nnnn2-c2ccc(OC)cc2)cc1 | inactive |
| O=C(NCCC1CCCCN1S(=O)(=O)c1ccc(Cl)cc1)C(=O)NCc1ccncc1 (stereo not drawn) | active: 20.6 µM |
| CCOc1ccc(-c2[nH]ncc2-c2ccc(OC)c(OC)c2)c(O)c1 | inconclusive: 14.6 µM [falling, partial curve, poor fit] |
| Nc1cc(-c2ccccc2)nn1S(=O)(=O)c1ccc(F)cc1 | active: 18.4 µM |
| CCc1c(C)sc(NC(=O)c2cc(C)on2)c1C#N | inconclusive: 3.26 µM [activator, full curve] |

| SMILES | Potency |
| --- | --- |
| CC1CC1C(=O)N1CCN(S(=O)(=O)c2cc(C(F)(F)F)cc(C(F)(F)F)c2)CC1 (stereo not drawn) | inconclusive: 25.9 µM [falling, partial curve, poor fit] |
| CCC(Sc1nc2cc(OC)c(OC)cc2c(=O)n1CCc1ccc(OC)c(OC)c1)C(=O)NCCOC (stereo not drawn) | inconclusive: 5.17 µM [falling, full curve] |
| COc1ccc2nc(N3C(=O)/C(=C/c4ccccc4)NC3=S)sc2c1 | inactive |
| Oc1c(Br)cc(Cl)cc1C=Nc1ccc(N2CCOCC2)cc1 | inconclusive: 3.26 µM [activator, full curve, poor fit] |
| O=C(O)c1ccc(CSc2ncnc3c2cnn3Cc2ccccc2)cc1 | inconclusive: 25.9 µM [falling, single point] |
| Cc1ccccc1C(=O)N1CCCC(CCC(=O)N2CCN(c3ccccn3)CC2)C1 (stereo not drawn) | active: 23.1 µM |
| CC(C)c1ccc(NC(=S)NC2CC3C=CC2C3)cc1 (stereo not drawn) | inconclusive: 25.9 µM [activator, partial curve, poor fit] |
| CCC1CCCCN1CCCNC(=O)c1[nH]c2ccccc2c1Sc1ccc(Cl)cc1 (stereo not drawn) | inactive |
| O=C1N=C2N(CCN3CCCCC3)c3ccccc3N2/C1=C\c1ccc([N+](=O)[O-])s1 | inactive |
| COc1ccc(-n2c(SCC(=O)NC3CCCCC3)nc3ccsc3c2=O)cc1 | inactive |
| Cc1c2cnn(CC(=O)N3CCCCC3)c(=O)c2c(C)n1Cc1ccc(F)cc1 | inconclusive: 8.2 µM [activator, partial curve] |
| Clc1ccc(OCCSCc2nc3ccccc3[nH]2)cc1 | inconclusive: 29.1 µM [falling, single point] |
| O=C(Cc1ccc2c(c1)OCCO2)N1CCN(c2ccccc2)CC1 | inconclusive: 29.1 µM [activator, single point] |
| Cc1cccc(Nc2nc(-c3cccs3)cs2)n1 | inconclusive: 2.91 µM [activator, partial curve, poor fit] |
| Cc1ccc(Cl)cc1NS(=O)(=O)c1ccc2oc(=O)c3ncn(C)c3c2c1 | inconclusive: 36.6 µM [activator, single point] |
| CCCc1cc(C(=O)Nc2cccc(C(C)=O)c2)no1 | inconclusive: 14.6 µM [activator, single point] |
| O=C(Cc1ccc(F)cc1)Nc1nnc(-c2ccc(F)cc2)o1 | inconclusive: 29.1 µM [falling, partial curve, poor fit] |
| CCc1ccc(/C=N/N2CCN(c3ccccn3)CC2)cc1 | inconclusive: 20.6 µM [falling, partial curve, poor fit] |
| O=C(N/N=C/c1ccc(F)cc1)c1cc(-c2ccc3c(c2)OCO3)n[nH]1 | inconclusive: 29.1 µM [falling, single point] |
| O=C(CCS(=O)(=O)c1cccs1)NC1CCCCCC1 | inconclusive: 6.51 µM [activator, partial curve, poor fit] |
| CCCCCOC(=O)C1=C(C)NC(=O)NC1c1ccccc1 (stereo not drawn) | inactive |
| Cc1cc(C)nc(NC(=S)Nc2ccccc2)n1 | inconclusive: 23.1 µM [activator, single point] |
| CCOC(=O)c1sc(NC(=S)NC(=O)C23CC4CC(CC(C4)C2)C3)cc1C | inconclusive: 1.64 µM [activator, partial curve, poor fit] |

Six successive compounds already listed, for reference:

| SMILES | Potency |
| --- | --- |
| Cc1c2cnn(CC(=O)N3CCCCC3)c(=O)c2c(C)n1Cc1ccc(F)cc1 | inconclusive: 8.2 µM [activator, partial curve] |
| Clc1ccc(OCCSCc2nc3ccccc3[nH]2)cc1 | inconclusive: 29.1 µM [falling, single point] |
| O=C(Cc1ccc2c(c1)OCCO2)N1CCN(c2ccccc2)CC1 | inconclusive: 29.1 µM [activator, single point] |
| Cc1cccc(Nc2nc(-c3cccs3)cs2)n1 | inconclusive: 2.91 µM [activator, partial curve, poor fit] |
| Cc1ccc(Cl)cc1NS(=O)(=O)c1ccc2oc(=O)c3ncn(C)c3c2c1 | inconclusive: 36.6 µM [activator, single point] |
| CCCc1cc(C(=O)Nc2cccc(C(C)=O)c2)no1 | inconclusive: 14.6 µM [activator, single point] |

Remaining list, next part:

| SMILES | Potency |
| --- | --- |
| c1ccc(-c2cn3c(n2)-c2ccccc2C3)cc1 | inconclusive: 1.84 µM [activator, partial curve] |
| COc1ccc(-c2nnc(SCC(=O)Nc3ccccc3OC)o2)cc1 | inconclusive: 7.31 µM [falling, single point] |
| Cc1cccc(-c2nc3c4ccccc4nc(N4CCN(c5ccccc5F)CC4)n3n2)c1 | inconclusive: 14.6 µM [activator, single point] |
| O=C(Nc1ccc(C(=O)NC2CCCCC2)cc1)c1cccnc1 | inconclusive: 2.31 µM [falling, full curve] |
| Nc1nc(SCc2ccccc2)c2[nH]cnc2n1 | inactive |
| CCn1cc(C(=O)OCC(=O)OC2CC(C)CCC2C(C)C)c(=O)c2ccc(C)nc21 (stereo not drawn) | active: 20.6 µM |
| Cn1c(=O)c2c(-c3ccc(Cl)cc3)n(Cc3ccc(Cl)cc3)cc2n(C)c1=O | inconclusive: 20.6 µM [falling, single point] |
| CC(=O)Nc1ccc(NC(=O)COc2ccc(S(=O)(=O)NC(C)c3ccccc3)cc2)cc1 (stereo not drawn) | inconclusive: 29.1 µM [falling, single point] |
| O=C(Cc1ccc([N+](=O)[O-])cc1)Nc1cccc(C(=O)N2CCCCC2)c1 | inconclusive: 29.1 µM [falling, single point] |
| Cc1cccc(-c2nnc(-c3ccc4ccccc4c3)o2)c1 | inconclusive: 3.66 µM [activator, partial curve] |
| COc1ccccc1CNC(=O)C1CCCN(C(=O)c2cnn(-c3ccc(F)cc3)c2-n2cccc2)C1 (stereo not drawn) | inactive |
| Cc1cccc(NC(=O)Cc2ccc(Br)cc2)n1 | inconclusive: 13 µM [activator, partial curve] |
| O=C(NCCc1ccco1)C(=O)NCC1CCCN1S(=O)(=O)c1ccccc1 (stereo not drawn) | inactive |
| CCOc1ccc(CCNC(=O)COC(=O)COc2ccccc2C)cc1OCC | inconclusive: 5.17 µM [activator, partial curve, poor fit] |
| COc1ccc(/C=C/C(=O)NCc2ccccn2)cc1 | inconclusive: 32.6 µM [activator, single point] |
| Cc1cccc(N2CCN(S(=O)(=O)c3ccc(-c4coc(C)n4)cc3)CC2C)c1 (stereo not drawn) | inconclusive: 18.4 µM [falling, single point] |
| COCCCn1c(=O)c2sccc2n2c(CCCC(=O)Nc3cc(C)cc(C)c3)nnc12 | inconclusive: 14.6 µM [falling, single point] |
| Cc1cc(NCc2ccccn2)n2ncc(-c3ccccc3)c2n1 | inconclusive: 0.92 µM [activator, full curve, poor fit] |
| CN1CCN(S(=O)(=O)c2ccc(N(C)Cc3c(F)cccc3Cl)nc2)CC1 | inactive |
| CN(C)S(=O)(=O)N1CCC(Oc2ccc(C(=O)N3C[C@H]4CC[C@H]3C4)cc2)CC1 | inconclusive: 16.4 µM [falling, single point] |
| COc1ccc(CNC(=O)C2CCN(S(=O)(=O)c3ccc4c(c3)CC(C)N4C(C)=O)CC2)cc1 (stereo not drawn) | inconclusive: 23.1 µM [falling, single point] |
| CCN(CC)S(=O)(=O)c1cc(NS(=O)(=O)c2cc(Cl)ccc2Cl)ccc1C | inconclusive: 18.4 µM [falling, partial curve, poor fit] |
